{
  "source": "patent US20110098339A1",
  "binders": {"B1": {"name": "C2orf18-HA (protein, not shown: small tags and cut ends)", "chain": "SINTLSAKWADNFMAEGCGGSKEHSFQHPFLQAVGMFLGEFSCLAAFYLLRCRAAGQSDSSVDPQQPFNPLLFLPPALCDMTGTSLMYVALNMTSASSFQMLRGAVIIFTGLFSVAFLGRRLVLSQWLGILATIAGLVVVGLADLLSKHDSQHKLSEVITGDLLIIMAQIIVAIQMVLEEKFVYKHNVHPLRAVGTEGLFGFVILSLLLVPMYYIPAGSFSGNPRGTLEDALDAFCQVGQQPLIAVALLGNISSIAFFNFAGISVTKELSATTRMVLDSLRTVVIWALSLALGWEAFHALQILGFLILLIGTALYNGLHRPLLGRLSRGRPLAEESEQERLLGGTRTPINDAS"}},
  "key": {"[1]": {"molecular_target": "T1, ANT2 protein (endogenous, PK-1 cells) (human) (UniProt P05141)", "T1 sequence": "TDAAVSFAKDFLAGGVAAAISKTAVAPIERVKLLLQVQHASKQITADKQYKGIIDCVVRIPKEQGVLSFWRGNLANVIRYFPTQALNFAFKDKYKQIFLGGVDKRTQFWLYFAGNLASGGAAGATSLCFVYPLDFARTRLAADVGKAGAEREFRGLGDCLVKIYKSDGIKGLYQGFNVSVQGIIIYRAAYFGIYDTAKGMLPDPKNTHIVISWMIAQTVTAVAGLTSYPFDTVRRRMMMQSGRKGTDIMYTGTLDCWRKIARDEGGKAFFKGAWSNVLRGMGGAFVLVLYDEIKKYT", "test": "immunoprecipitation followed by mass spectrometry (FIG. 3C legend)"}, "[2]": {"molecular_target": "T1, ANT2 protein (endogenous, PK-1 cells) (human)", "test": "anti-HA immunoprecipitation from lysate of cells over-expressing C2orf18-HA, mass spectrometry of co-precipitated bands"}},
  "note": "These are yes or no findings as the source states them, for the method shown. In cells and extracts the contact can be indirect. These calls come from enrichment with a bait or labelling near it, and not all partners need be listed. Tags and fused reporters may be left off the sequences shown.",
  "data": [
    {"binder": "B1", "values": [
      {"measurement": "binding", "setting": "[1]", "result": "binds"},
      {"measurement": "binding", "setting": "[2]", "result": "binds"}
    ]}
  ]
}
